{
  "source": "paper doi:10.1101/2025.10.22.683978",
  "binders": {"B1": {"name": "recombinant full-length OCA-B with a C-terminal FLAG tag (protein, UniProt Q16633 1-256)", "chain": "MLWQKPTAPEQAPAPARPYQGVRVKEPVKELLRRKRGHASSGAAPAPTAVVLPHQPLATYTTVGPSCLDMEGSVSAVTEEAALCAGWLSQPTPATLQPLAPWTPYTEYVPHEAVSCPYSADMYVQPVCPSYTVVGPSSVLTYASPPLITNVTTRSSATPAVGPPLEGPEHQAPLTYFPWPQPLSTLPTSTLQYQPPAPALPGPQFVQLPISIPEPVLQDMEDPRRAASSLTIDKLLLEEEDSDAYALNHTLSVEGF"}},
  "molecular_target": "recombinant Oct1 DNA binding domain, C-terminally Twinstrep-tagged",
  "assay": "native gel or EMSA",
  "note": "Results are given in words; binding and its absence hold for the method and conditions named. Binding can be weak; no strength is given. Tags and fused reporters may be left off the sequences shown.",
  "data": [
    {"binder": "B1", "values": [
      {"measurement": "binding", "value": "binds"}
    ]}
  ]
}
